{
  "sequences": {"note": "The chains behind the UniProt entries cited, without tags or fusion partners. Residues count along the entry.", "UniProt P01009, residues 25-418": "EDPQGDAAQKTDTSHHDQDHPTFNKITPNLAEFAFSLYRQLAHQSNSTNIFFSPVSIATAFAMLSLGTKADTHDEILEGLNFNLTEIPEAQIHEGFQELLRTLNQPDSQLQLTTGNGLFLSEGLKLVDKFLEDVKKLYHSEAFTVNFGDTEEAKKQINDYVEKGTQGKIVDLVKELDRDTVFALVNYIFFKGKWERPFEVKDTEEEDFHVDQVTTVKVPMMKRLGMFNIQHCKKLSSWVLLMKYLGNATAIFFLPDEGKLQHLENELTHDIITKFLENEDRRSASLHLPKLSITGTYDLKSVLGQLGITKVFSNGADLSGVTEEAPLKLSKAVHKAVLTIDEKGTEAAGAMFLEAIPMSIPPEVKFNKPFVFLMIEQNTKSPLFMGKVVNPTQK"},
  "source": "patent US20030212253A1",
  "about": "(AMERICAN NATIONAL RED CROSS, published 2003)",
  "target": "α1 proteinase inhibitor (API), human plasma (human) (UniProt P01009)",
  "experiment": "on-bead 6-mer library screen with plasma, 14C-labeled or purified API; anti-API detection after transfer to membrane",
  "note": "No constants are given. Whether binding was seen depends on the method and setting. Some entries that bind do so weakly or less than the wild type.",
  "data": [
    {"binder": "HFDLHR (C-terminus attached to library resin bead)", "note": "[HFDLHR (SEQ ID NO: 47) peptide on library resin bead]", "values": [
      {"measurement": "binding", "value": "binds"}
    ]}
  ]
}
